Taken from: PubChem BioAssay AID652259 (Drosophila RNAi Screening Center, 2013)

Test: 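Knock-downs that push a Wingless-driven reporter up or down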 (primary screen)
System: Drosophila clone 8 imaginal disc epithelial cells
Reagent: long dsRNA against Drosophila genes
Conditions: pathway stimulated by co-transfected Wingless expression plasmid
Read-out: 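Dual luciferase reads per well after Wingless plasmid stimulation: reporter firefly light and Renilla control light; activity is firefly divided by Renilla, a ratio not deposited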
Scale: firefly reporter light: higher = more Wg reporter light, before normalisation; Renilla control light: higher = more transfected or surviving cells
Hit rule: 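Strong candidates differ from their plate mean by at least two out of four per-plate statistical tests; weak candidates meet just one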
Calls: active = candidate regulator (raises or lowers reporter); inactive = not a candidate
In all, the deposit lists about 22,000 reagents; below is a random part of those that have a named target and a result. In the full data, 233 (1.1%) got an active call. 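Light values are raw, unnormalised plate reads; the ratio scores behind the reporter calls were not deposited.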 No sequences are given here. The record does not give: the amount of reagent, the time to read-out, the dose of the treatment.

Gene	amplicon	reporter change call, replicate 1	firefly reporter light, replicate 1	firefly reporter light, replicate 2	Renilla control light, replicate 1	Renilla control light, replicate 2	activity call
Smu1 (Smu1 spliceosomal factor)	DRSC15803		3873	9684	592	2295	inactive
I-3 (Inhibitor-3)	DRSC20479		10267		8058		inactive
sob	DRSC00838		2918	6307	854	739	inactive
CG12773	DRSC18580		2960	8025	1226	1376	inactive
CG42296	DRSC00394		2742	7873	1213	2732	inactive
CG31220	DRSC22248		5.52e5	4.25e5	1.84e5	2.24e5	inactive
lncRNA:CR32690 (long non-coding RNA:CR32690)	DRSC22219		7.20e5	7.45e5	3.03e5	2.83e5	inactive
Mtmr6 (Myotubularin related protein 6)	DRSC04046		2887	6579	713	2375	inactive
Pi3K92E (Phosphatidylinositol 3-kinase 92E)	DRSC16788		3573	5404	1543	1920	inactive
Gr32a (Gustatory receptor 32a)	DRSC02400		2539	9860	1162	4986	inactive
CG42615	DRSC05121		26208		12880		inactive
egr (eiger)	DRSC06233		3002	5873	980	3014	inactive
Map205 (Microtubule-associated protein 205)	DRSC16732		2336	7939	504	1223	inactive
CG31759	DRSC01230		13303		6754		inactive
Vha68-3 (Vacuolar H[+] ATPase 68kD subunit 3)	DRSC02809		2784	9648	1008	4172	inactive
CG33225	DRSC03881		11217		5627		inactive
CG4960	DRSC15684		18747		15588		inactive
Ada (Adenosine deaminase)	DRSC14463		23120		4365		inactive
CG14142	DRSC10145		5865		2505		inactive
zfh1 (Zn finger homeodomain 1)	DRSC14014		4033	6.51e5	1360	2.90e5	inactive
zfh1 (Zn finger homeodomain 1)	DRSC17098		2448	6474	770	1632	inactive
CG14641	DRSC12227		7041		2859		inactive
prd (paired)	DRSC03597		11104		3760		inactive
BBS9 (Bardet-Biedl syndrome 9)	DRSC04257		2439	8011	867	3381	inactive
Cpr11A (Cuticular protein 11A)	DRSC19861		15952		9840		inactive
CG1441	DRSC06448		15665		2229		inactive
CG42813	DRSC15939		3286	7619	1332	2274	inactive
Arpc2 (Actin-related protein 2/3 complex, subunit 2)	DRSC02113		14674		5637		inactive

Part of the list above, reformatted.
{"Gene": "Pi3K92E (Phosphatidylinositol 3-kinase 92E)", "amplicon": "DRSC16788", "firefly reporter light, replicate 1": 3573, "firefly reporter light, replicate 2": 5404, "Renilla control light, replicate 1": 1543, "Renilla control light, replicate 2": 1920, "activity call": "inactive"}
{"Gene": "Gr32a (Gustatory receptor 32a)", "amplicon": "DRSC02400", "firefly reporter light, replicate 1": 2539, "firefly reporter light, replicate 2": 9860, "Renilla control light, replicate 1": 1162, "Renilla control light, replicate 2": 4986, "activity call": "inactive"}
{"Gene": "CG42615", "amplicon": "DRSC05121", "firefly reporter light, replicate 1": 26208, "Renilla control light, replicate 1": 12880, "activity call": "inactive"}
{"Gene": "egr (eiger)", "amplicon": "DRSC06233", "firefly reporter light, replicate 1": 3002, "firefly reporter light, replicate 2": 5873, "Renilla control light, replicate 1": 980, "Renilla control light, replicate 2": 3014, "activity call": "inactive"}
{"Gene": "Map205 (Microtubule-associated protein 205)", "amplicon": "DRSC16732", "firefly reporter light, replicate 1": 2336, "firefly reporter light, replicate 2": 7939, "Renilla control light, replicate 1": 504, "Renilla control light, replicate 2": 1223, "activity call": "inactive"}
{"Gene": "CG31759", "amplicon": "DRSC01230", "firefly reporter light, replicate 1": 13303, "Renilla control light, replicate 1": 6754, "activity call": "inactive"}
{"Gene": "Vha68-3 (Vacuolar H[+] ATPase 68kD subunit 3)", "amplicon": "DRSC02809", "firefly reporter light, replicate 1": 2784, "firefly reporter light, replicate 2": 9648, "Renilla control light, replicate 1": 1008, "Renilla control light, replicate 2": 4172, "activity call": "inactive"}
{"Gene": "CG33225", "amplicon": "DRSC03881", "firefly reporter light, replicate 1": 11217, "Renilla control light, replicate 1": 5627, "activity call": "inactive"}
{"Gene": "CG4960", "amplicon": "DRSC15684", "firefly reporter light, replicate 1": 18747, "Renilla control light, replicate 1": 15588, "activity call": "inactive"}
{"Gene": "Ada (Adenosine deaminase)", "amplicon": "DRSC14463", "firefly reporter light, replicate 1": 23120, "Renilla control light, replicate 1": 4365, "activity call": "inactive"}
{"Gene": "CG14142", "amplicon": "DRSC10145", "firefly reporter light, replicate 1": 5865, "Renilla control light, replicate 1": 2505, "activity call": "inactive"}

The results go on.
Gene	amplicon	reporter change call, replicate 1	firefly reporter light, replicate 1	firefly reporter light, replicate 2	Renilla control light, replicate 1	Renilla control light, replicate 2	activity call
CG32369	DRSC10042		2178	7276	1108	2364	inactive
CG32369	DRSC10834		7394		3114		inactive
CG9997	DRSC16591		9608		2640		inactive
CG32445	DRSC11678		14678		4125		inactive
Rfx	DRSC16820		9561		1766		inactive
Orcokinin	DRSC04202		4192	9592	1104	3218	inactive
l(2)k05911 (lethal (2) k05911)	DRSC02523		4502		1336		inactive
bowl	DRSC00805		9192		4269		inactive
Mst57Dc (Male-specific transcript 57Dc)	DRSC16745		12128		12508		inactive
E(spl)m2-BFM (Enhancer of split m2, Bearded family member)	DRSC16991		12003		5024		inactive
tef (teflon)	DRSC07301		18213		5396		inactive
tef (teflon)	DRSC22041		7.97e5	7.71e5	3.20e5	3.08e5	inactive
CG15536	DRSC15072		11469	6.96e5	4679	3.64e5	inactive
CG15536	DRSC22844		5.45e5	5.94e5	1.93e5	2.47e5	inactive
ppk15 (pickpocket 15)	DRSC14733		14258		16541		inactive
CG6481	DRSC19995		19410		10097		inactive
CG11723	DRSC00324		10224		2377		inactive
CG17219	DRSC00486		3429	6365	1410	2685	inactive
Rtf1	DRSC04085		9451		2349		inactive
Dna2 (DNA replication helicase/nuclease 2)	DRSC18254		2160	5514	777	1380	inactive
Sirt6 (Sirtuin 6)	DRSC16010		10145		2848		inactive
fest (wurstfest)	DRSC07349		7898		1674		inactive
CG33299	DRSC01085		17238		7734		inactive
zpg (zero population growth)	DRSC09702		2096	7252	992	3420	inactive
CG6324	DRSC19985		15148		7090		inactive
CG4404	DRSC19897		27763		10677		inactive
Slob (Slowpoke binding protein)	DRSC02296		2642	7194	467	3612	inactive
Slob (Slowpoke binding protein)	DRSC03436		11556		4656		inactive
Cul6 (Cullin 6)	DRSC09830		2982		1505		inactive
CG9222	DRSC03158		2560	5145	794	2136	inactive
Or23a (Odorant receptor 23a)	DRSC00767		2016	6097	1097	2524	inactive
Peritrophin-A (Peritrophin A)	DRSC20570		2896	10528	1386	3895	inactive
CG17147	DRSC10249		13584		2885		inactive
CG32548	DRSC19627		21549		10816		inactive
CG32548	DRSC19982		2874	6299	761	2032	inactive
mRpS17 (mitochondrial ribosomal protein S17)	DRSC04463		2608	4490	496	2332	inactive
CG34227	DRSC06788		7386		2250		inactive
CG34227	DRSC07034		6608		2470		inactive
CG32236	DRSC08117		3782		1939		inactive
CG11141	DRSC06048		15296		4240		inactive
hng1 (hinge1)	DRSC04555		9670		2726		inactive
CG11029	DRSC02119		2552	6136	891	2055	inactive
CG5561	DRSC00688		4102	9338	1949	3804	inactive
CG42709	DRSC10277		5529		2464		inactive
CG13711	DRSC08320	Wg reporter activity lowered	560	3050	848	2261	inactive
